The experiment deals with T1, myc-PKCλ (UniProt Q62074).
T1 sequence: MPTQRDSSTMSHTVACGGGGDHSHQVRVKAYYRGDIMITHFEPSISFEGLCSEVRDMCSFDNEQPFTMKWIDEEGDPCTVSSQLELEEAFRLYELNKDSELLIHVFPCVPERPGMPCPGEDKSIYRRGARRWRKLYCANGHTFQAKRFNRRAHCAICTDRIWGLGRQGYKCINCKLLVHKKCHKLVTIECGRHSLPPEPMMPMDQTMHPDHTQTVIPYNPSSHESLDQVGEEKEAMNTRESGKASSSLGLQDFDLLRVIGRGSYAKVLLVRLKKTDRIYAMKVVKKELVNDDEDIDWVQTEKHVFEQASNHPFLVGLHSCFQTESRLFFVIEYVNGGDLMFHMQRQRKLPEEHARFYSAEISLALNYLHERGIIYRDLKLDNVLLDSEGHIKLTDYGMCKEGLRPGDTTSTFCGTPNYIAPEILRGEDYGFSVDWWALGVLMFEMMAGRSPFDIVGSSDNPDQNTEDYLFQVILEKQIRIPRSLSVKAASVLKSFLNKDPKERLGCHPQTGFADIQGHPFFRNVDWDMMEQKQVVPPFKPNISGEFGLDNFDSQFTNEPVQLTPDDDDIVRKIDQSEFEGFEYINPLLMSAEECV
Nature of the experiment: co-IP; HEK293T cells co-transfected with Girdin-V5 and myc-tagged proteins; lysed in RIPA buffer; immunoprecipitated with anti-myc antibody, blotted with anti-V5; in Figure 8B also with a co-expressed dominant-negative PKC mutant (K273E).

These are yes or no findings as the source states them, for the method shown. In cells and extracts the contact can be indirect. A result given as binding can be weak or reduced; the word gives no strength. Tags and fused reporters may be left off the sequences shown.

Consider Girdin-V5 (human), for which the binding entry is “binds”.

The values are drawn from paper PMC3344933.
